In US20260224620A1:
These are yes or no findings as the source states them, for the method shown. Some binding calls cover weakened binding; strength is not graded here.

By UniProt entry, the sequences of proteins in these tests, tags left out. Where a name states a change or a piece, a line headed by the entry shows the natural chain unless it says otherwise.
UniProt Q08722: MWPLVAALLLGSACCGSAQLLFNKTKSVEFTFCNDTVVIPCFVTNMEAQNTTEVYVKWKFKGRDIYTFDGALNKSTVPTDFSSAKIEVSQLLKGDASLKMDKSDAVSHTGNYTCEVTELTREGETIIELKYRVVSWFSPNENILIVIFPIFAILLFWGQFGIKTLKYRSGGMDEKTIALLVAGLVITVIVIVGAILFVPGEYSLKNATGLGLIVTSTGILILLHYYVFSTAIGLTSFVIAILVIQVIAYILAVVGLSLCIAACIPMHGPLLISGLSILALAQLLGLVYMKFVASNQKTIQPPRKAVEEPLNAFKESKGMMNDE

How the values were obtained:
[1] = molecular target: Human CD47 (A30P), full-length, expressed on cells (human) (UniProt Q08722); experiment: flow cytometry on primary human T cells, 50 nM mSIRPα
[2] = molecular target: Human CD47 (Q31P), full-length, expressed on cells (human) (UniProt Q08722); experiment: as above
[3] = molecular target: Yeast displayed CD47 Ig-like domain A30P in pFNT (human) (UniProt Q08722); experiment: flow cytometry on yeast display with free CD47 N-terminus (pFNT)
[4] = molecular target: Yeast displayed CD47 Ig-like domain Q31P in pFNT (human) (UniProt Q08722); experiment: as above
[5] = molecular target: Human CD47 (A30P), full-length, expressed on cells (human) (UniProt Q08722); experiment: flow cytometry on Jurkat cells with endogenous 47KO, 100 nM mSIRPα
[6] = molecular target: Human CD47 (Q31P), full-length, expressed on cells (human) (UniProt Q08722); experiment: as above
[7] = molecular target: Human CD47 (A30P), full-length, expressed on cells (human) (UniProt Q08722); experiment: flow cytometry on primary human T cells over-expressing full-length CD47 variants
[8] = molecular target: Human CD47 (A30P-Q31A), full-length, expressed on cells (human) (UniProt Q08722); experiment: as above
[9] = molecular target: Human CD47 (Q31P), full-length, expressed on cells (human) (UniProt Q08722); experiment: as above

binding [1]: binds
binding [2]: binds
binding [3]: binds
binding [4]: binds
binding [5]: binds
binding [6]: binds
binding [7]: binds
binding [8]: binds
binding [9]: binds
B1: Mouse SIRPα-hFc (Fc fusion, UniProt P97797 32-373, looked up, not shown: a dimerising Fc or GST)
chain: KELKVTQPEKSVSVAAGDSTVLNCTLTSLLPVGPIRWYRGVGPSRLLIYSFAGEYVPRIRNVSDTTKRNNMDFSIRISNVTPADAGIYYCVKFQKGSSEPDTEIQSGGGTEVYVLAKPSPPEVSGPADRGIPDQKVNFTCKSHGFSPRNITLKWFKDGQELHPLETTVNPSGKNVSYNISSTVRVVLNSMDVNSKVICEVAHITLDRSPLRGIANLSNFIRVSPTVKVTQQSPTSMNQVNLTCRAERFYPEDLQLIWLENGNVSRNDTPKNLTKNTDGTYNYTSLFLVNSSAHREDVVFTCQVKHDQQPAITRNHTVLGFAHSSDQGSMQTFPDNNATHNWN
